In publication PMC4625058 one finds binding data, which are given here for one substance.

Protein sequences, listed by entry. Tags and fused reporters are not part of them. Lines headed by an entry give the natural chain unless they say otherwise; changes in a name come on top.
UniProt Q388G3: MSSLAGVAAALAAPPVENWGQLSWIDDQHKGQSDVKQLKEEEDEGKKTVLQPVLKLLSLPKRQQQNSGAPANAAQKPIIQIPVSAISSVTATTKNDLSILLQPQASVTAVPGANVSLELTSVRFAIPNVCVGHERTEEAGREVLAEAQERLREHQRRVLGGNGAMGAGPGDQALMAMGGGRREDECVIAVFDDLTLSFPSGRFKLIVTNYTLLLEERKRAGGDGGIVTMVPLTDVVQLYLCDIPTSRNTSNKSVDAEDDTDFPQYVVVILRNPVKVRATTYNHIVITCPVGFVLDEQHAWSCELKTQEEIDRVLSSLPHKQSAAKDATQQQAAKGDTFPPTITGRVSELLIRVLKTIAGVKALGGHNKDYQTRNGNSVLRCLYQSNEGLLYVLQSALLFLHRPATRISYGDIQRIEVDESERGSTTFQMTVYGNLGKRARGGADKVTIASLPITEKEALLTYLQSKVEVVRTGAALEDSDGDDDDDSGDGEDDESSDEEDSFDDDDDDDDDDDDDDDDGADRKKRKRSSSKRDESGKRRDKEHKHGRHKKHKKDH

These are yes or no findings as the source states them, for the method shown. In cells and extracts the contact can be indirect. Here binding means that the protein was enriched with, or labelled near, the bait; the list need not be complete.

The assay has as its target T. brucei FACT large subunit Spt16, tagged with a C-terminal PTP epitope (Trypanosoma brucei) (UniProt Q580R3). Nature of the assay: affinity purification with mass spectrometry; tandem affinity purification of Spt16-PTP from lysate of about 2 x 10^10 procyclic-form cells: IgG Sepharose, TEV cleavage, anti-Prot C matrix with Ca2+, elution with EGTA; SDS-PAGE bands identified by mass spectrometry.

Regarding “T. brucei Pob3, small subunit of the FACT complex (from UniProt Q388G3)”, the binding entry is “binds”.
